# Measurements from PubChem BioAssay AID2685 (National Center for Advancing Translational Sciences (NCATS), 2010).
# The list shows a part of the results. Further columns of the screen follow, without active or inactive calls. Most of these compounds were active or inconclusive in the main read-out, so they are no random draw. Words in brackets tell the shape of the fitted curve; partial curves, single points and poor fits give uncertain potencies.
# Test: qHTS Assay for Lipid Storage Modulators in Drosophila S3 Cells;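 on cell number change: cells counted by Cell Tracker Red CMTPX staining in the red channel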
# Settings: BODIPY lipid droplet fluorescence, 18-24 h; for cell number change: measured here: cell count max response, cells fed with added oleic acid
# How it was run: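 Laser-scanning cytometry quantifies lipid droplet accumulation (500–530 nm total intensity; droplet/cell object ratio) in oleic acid-fed (400 uM added) Drosophila S3 cells treated with a concentration series. 20 uM Triacsin C defined 100% inhibition.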
# [1] = measured here: cell number channel AC50, cells fed with added oleic acid
# [2] = measured here: lipid fluorescence (Fed channel) AC50, cells fed with added oleic acid
structure (smiles),measurement,setting,value
CN(C(=O)COC(=O)c1ccccc1OCc1ccc(Cl)cc1)c1c(N)n(Cc2ccccc2)c(=O)[nH]c1=O,cell number change,,30.9%
same,AC50,[1],"4.61 µM [rising, full curve]"
CCc1nnc(NS(=O)(=O)c2ccc(NCc3ccccc3O)cc2)s1,AC50,[2],"0.82 µM [rising, full curve]"
Cc1cccc(OCCC(=O)Nc2ccc(Cl)cc2F)c1,cell number change,,6.57%
same,AC50,[2],"29.1 µM [rising, single point]"
Cc1ccc(NC(=S)/N=C(\N)Nc2nc(C)c3ccccc3n2)cc1C,cell number change,,-4.93%
same,AC50,[2],"0.731 µM [rising, partial curve]"
O=C(NC(=S)Nc1ccccc1C(=O)O)c1ccc(-c2ccc(Br)cc2)o1,cell number change,,-12.5%
same,AC50,[2],"0.58 µM [falling, single point]"
Cc1cc(NS(=O)(=O)c2ccc(NC(=O)c3ccc(Br)o3)cc2)nc(C)n1,cell number change,,14.1%
same,AC50,[2],"0.0651 µM [rising, full curve, poor fit]"
O=C(CNC(=O)c1ccc(Cl)cc1)OCC(=O)N1CCCC1,cell number change,,60.7%
same,AC50,[1],"1.3 µM [rising, partial curve]"
same,AC50,[2],"29.1 µM [rising, single point]"
CCN(CC)S(=O)(=O)N1CCC(C(=O)NCCN2CCOCC2)CC1,cell number change,,-17.8%
same,AC50,[2],"6.51 µM [falling, single point]"
CCN(CC)S(=O)(=O)c1cccc(C(=O)OCC(=O)N2CC(=O)Nc3ccccc32)c1,cell number change,,37%
same,AC50,[1],"1.16 µM [rising, partial curve]"
same,AC50,[2],"0.651 µM [rising, single point]"
COc1cc(CCCN2C(=S)NC[C@H]2Cc2ccc(O)cc2)cc(OC)c1OC,cell number change,,-22.5%
same,AC50,[2],"29.1 µM [falling, single point]"
COc1ccc(Cl)cc1C(=O)Nn1c(C)nc2ccccc2c1=O,cell number change,,1.6%
same,AC50,[2],"20.6 µM [rising, partial curve]"
COCCCN1C(=O)C(O)=C(C(C)=O)C1c1ccccn1 (configuration not stated),cell number change,,-14.9%
same,AC50,[1],"0.731 µM [falling, full curve, poor fit]"
same,AC50,[2],"14.6 µM [falling, partial curve]"
COc1ccc2c(-c3ccccc3)cc(SC(C)C(N)=O)nc2c1 (configuration not stated),cell number change,,-30.5%
same,AC50,[1],"25.9 µM [falling, partial curve, poor fit]"
same,AC50,[2],"32.6 µM [falling, single point]"
O=C(CN1CCN(C2CCCCC2)CC1)Nc1ccccc1N1CCCCC1,cell number change,,18.2%
same,AC50,[2],"29.1 µM [rising, single point]"
O=C(CCC(=O)c1cccs1)OCc1ccc([N+](=O)[O-])cc1,cell number change,,-14.1%
same,AC50,[2],"32.6 µM [falling, single point]"
COc1cccc(NC(=O)CN(C)C(=O)Cn2c(=O)oc3ccccc32)c1,cell number change,,-91.1%
same,AC50,[1],"20.6 µM [falling, partial curve]"
same,AC50,[2],"0.00517 µM [rising, full curve, poor fit]"
CCCC(=O)c1ccc2c(c1)OCCO2,cell number change,,-20.2%
same,AC50,[2],"29.1 µM [falling, single point]"
CCOC(=O)CN=C1CC(C)(C)CC2=C1Sc1ncnc(N(C)C)c1N2,cell number change,,-30.7%
same,AC50,[1],"32.6 µM [falling, single point]"
same,AC50,[2],"0.82 µM [rising, single point]"
COC(=O)c1c(-c2ccncc2)csc1NC(=O)c1ccoc1C,cell number change,,11.2%
same,AC50,[2],"0.58 µM [rising, single point]"
COc1ccc(NC(=O)CSc2nncn2C)c([N+](=O)[O-])c1,cell number change,,147%
COc1cc(C(=O)Nc2nnc(-c3sccc3C)s2)cc(OC)c1OC,AC50,[2],"0.651 µM [falling, single point]"
CCn1c(CC(=O)Nc2ccc(C)c(Cl)c2)nnc1SCC(=O)Nc1nc(C)cs1,AC50,[1],"1.16 µM [rising, partial curve, poor fit]"
same,AC50,[2],"1.46 µM [rising, partial curve]"
Cn1nnnc1SC(C(=O)Nc1cccc(C(F)(F)F)c1)c1ccccc1 (configuration not stated),cell number change,,33.3%
same,AC50,[1],"32.6 µM [rising, single point]"
COc1ccc2c(c1)C1=NN(/C(C)=C/C(C)=O)C(c3cccc(F)c3)C1CC2 (configuration not stated),cell number change,,35.2%
same,AC50,[1],"6.51 µM [rising, partial curve]"
same,AC50,[2],"6.51 µM [rising, partial curve]"
CN(CC(=O)Nc1ccc(F)cc1)C(=O)Cn1cnc2ccc(Cl)cc2c1=O,cell number change,,3.43%
same,AC50,[1],"6.51 µM [falling, single point]"
same,AC50,[2],"6.51 µM [falling, single point]"
CCOC(=O)C1(C)NC(c2cccs2)C2C(=O)N(c3ccccc3)C(=O)C21 (configuration not stated),cell number change,,3.76%
same,AC50,[1],"2.91 µM [rising, single point]"
same,AC50,[2],"0.651 µM [rising, partial curve, poor fit]"
CN(C)c1ccc(C(=O)Nc2cc(C(F)(F)F)ccc2-n2cncn2)cc1,cell number change,,49.6%
same,AC50,[1],"10.3 µM [rising, partial curve, poor fit]"
same,AC50,[2],"0.116 µM [rising, full curve, poor fit]"
O=C(OCc1cc(=O)n2cc(Br)ccc2n1)c1ccc(Cl)c(S(=O)(=O)NCc2ccccc2)c1,cell number change,,-49.6%
same,AC50,[1],"29.1 µM [falling, single point]"
same,AC50,[2],"0.00517 µM [falling, full curve, poor fit]"
COC(=O)CCCN1C(=O)c2cccc3cccc(c23)C1=O,cell number change,,-20.1%
same,AC50,[2],"0.58 µM [falling, single point]"
Cc1ccc(O)c(-c2cc(C(=O)NCc3ccc4c(c3)OCO4)[nH]n2)c1,cell number change,,32.1%
same,AC50,[1],"23.1 µM [rising, single point]"
same,AC50,[2],"20.6 µM [rising, partial curve]"
O=c1oc(-c2ccccc2)nc2c1C1(CCCCC1)Cc1ccccc1-2,cell number change,,14.8%
same,AC50,[2],"0.058 µM [rising, partial curve, poor fit]"
CCc1nc(N2CCCC2)c(C#N)c2c1CCCC2,cell number change,,31.1%
same,AC50,[1],"29.1 µM [rising, single point]"
O=C(Nc1ccc2c(c1)OCCO2)C1CCC1,cell number change,,7.54%
O=S(=O)(c1ccc2c(c1)OCCO2)N1CCN(c2nc(-c3cccnc3)nc3ccccc23)CC1,cell number change,,79.1%
same,AC50,[1],"6.51 µM [falling, partial curve, poor fit]"
Cc1ccccc1OC(=O)c1cccc(S(=O)(=O)N2CCN(C)CC2)c1,cell number change,,33.8%
same,AC50,[1],"14.6 µM [rising, partial curve, poor fit]"
COC(=O)c1ccc(C)c(NC(=O)CN(c2cc(OC)ccc2OC)S(C)(=O)=O)c1,cell number change,,16.5%
same,AC50,[1],"0.326 µM [rising, single point]"
same,AC50,[2],"0.366 µM [rising, full curve]"
Cc1ccc2c(CN3CCC(C)CC3)cc(=O)oc2c1,cell number change,,21.1%
same,AC50,[2],"0.206 µM [rising, full curve, poor fit]"
OC1C2(Cc3ccccc3)CN3CCN(C2)CC1(Cc1ccccc1)C3 (configuration not stated),cell number change,,-15.5%
same,AC50,[1],"0.13 µM [falling, full curve, poor fit]"
same,AC50,[2],"6.51 µM [falling, single point]"
Brc1ccc(-c2nnc3ccc(N4CCN(c5ccccc5)CC4)nn23)cc1,cell number change,,-22%
same,AC50,[2],"0.651 µM [falling, full curve, poor fit]"
CN(CC(=O)Nc1ccccc1Cl)C(=O)c1ccc(-c2cccc(C(F)(F)F)c2)o1,cell number change,,141%
same,AC50,[1],"23.1 µM [rising, partial curve]"
NS(=O)(=O)c1ccc(S(=O)(=O)N2CCN(C3CCCC3)CC2)cc1,cell number change,,-6.96%
same,AC50,[2],"0.731 µM [rising, partial curve, poor fit]"
Cc1ccccc1N(CC(=O)N/N=C/c1ccccc1Cl)C(=O)c1ccccc1,cell number change,,58.5%
same,AC50,[1],"29.1 µM [rising, single point]"
Cc1nc(NC(=O)c2ccccc2)sc1-c1csc(Nc2ccc(Cl)cc2)n1,cell number change,,-28.8%
same,AC50,[2],"8.2 µM [falling, partial curve]"
CC(C)c1ccc(-n2cccc2/C=C2/C(=N)N3C=CSC3=NC2=O)cc1,cell number change,,24.4%
same,AC50,[2],"8.2 µM [rising, partial curve]"
O=C(Nc1cccc(Br)c1)/C(=C\c1cccnc1)NC(=O)c1ccco1,cell number change,,7.14%
same,AC50,[2],"16.4 µM [rising, single point]"
Cc1cc(C)n2nc(SCC(=O)N(C)C3CCCCC3)nc2n1,AC50,[1],"6.51 µM [rising, single point]"
same,AC50,[2],"7.31 µM [falling, single point]"
Cc1ccc(-c2noc(C3CCCN(C(=O)c4cccc([N+](=O)[O-])c4)C3)n2)o1 (configuration not stated),cell number change,,-10.5%
CCOc1ccc(OCC)c(NC(=O)C2CCCN(S(=O)(=O)c3c(C)n[nH]c3C)C2)c1 (configuration not stated),cell number change,,11%
same,AC50,[1],"0.116 µM [rising, full curve]"
CCc1ccc2c(c1)CCCN2C(=O)c1ccccc1C(=O)O,cell number change,,3.74%
same,AC50,[2],"0.13 µM [falling, partial curve, poor fit]"
CCCc1cc(C(=O)NC2CCCCC2)no1,AC50,[1],"6.51 µM [rising, single point]"
same,AC50,[2],"6.51 µM [rising, partial curve, poor fit]"
CCNc1nc(OCCNS(=O)(=O)c2cc(C)ccc2C)nc(N(C)C)n1,cell number change,,-3.31%
same,AC50,[2],"5.8 µM [rising, full curve]"
O=C(Nc1ccc(S(=O)(=O)N2CCCCC2)cc1)C1CCCCC1,cell number change,,-12.4%
Brc1ccc(-c2nn3c(-c4ccncc4)nnc3s2)o1,cell number change,,-19.1%
C/C(CC(=O)Nc1ccc2c(c1)OCCO2)=N\NC(=O)COc1ccc(Cl)c(C)c1,cell number change,,1.53%
same,AC50,[2],"29.1 µM [rising, single point]"
Cc1ccc(C2C3CN(C(C)C)CC=C3C(C#N)=C(N)C2(C#N)C#N)cc1 (configuration not stated),AC50,[1],"0.164 µM [rising, full curve, poor fit]"
same,AC50,[2],"0.164 µM [rising, full curve, poor fit]"

# Fetched one by one from above:
structure (smiles),measurement,setting,value
CCCC(=O)c1ccc2c(c1)OCCO2,AC50,[2],"29.1 µM [falling, single point]"
Cc1ccc(NC(=S)/N=C(\N)Nc2nc(C)c3ccccc3n2)cc1C,AC50,[2],"0.731 µM [rising, partial curve]"
Cc1ccc(O)c(-c2cc(C(=O)NCc3ccc4c(c3)OCO4)[nH]n2)c1,AC50,[1],"23.1 µM [rising, single point]"
CCOC(=O)C1(C)NC(c2cccs2)C2C(=O)N(c3ccccc3)C(=O)C21 (configuration not stated),AC50,[2],"0.651 µM [rising, partial curve, poor fit]"
OC1C2(Cc3ccccc3)CN3CCN(C2)CC1(Cc1ccccc1)C3 (configuration not stated),cell number change,,-15.5%
O=C(NC(=S)Nc1ccccc1C(=O)O)c1ccc(-c2ccc(Br)cc2)o1,cell number change,,-12.5%
